PubChem BioAssay AID2718 (Broad Institute, 2010)
Out of some 320,000 compounds screened, about 480 (0.15%) were called active. The inconclusive results got no clear call from the source; some entries with a clear call stand among them for comparison. Cut-off read from the data, not from the text of the source: active = inhibition above about 26% (passing the limit was not always enough); inconclusive = no clear call, values can overlap the other calls.

Protein sequences, listed by entry. Tags and fused reporters are not part of them.
UniProt O15379, whole entry, looked up: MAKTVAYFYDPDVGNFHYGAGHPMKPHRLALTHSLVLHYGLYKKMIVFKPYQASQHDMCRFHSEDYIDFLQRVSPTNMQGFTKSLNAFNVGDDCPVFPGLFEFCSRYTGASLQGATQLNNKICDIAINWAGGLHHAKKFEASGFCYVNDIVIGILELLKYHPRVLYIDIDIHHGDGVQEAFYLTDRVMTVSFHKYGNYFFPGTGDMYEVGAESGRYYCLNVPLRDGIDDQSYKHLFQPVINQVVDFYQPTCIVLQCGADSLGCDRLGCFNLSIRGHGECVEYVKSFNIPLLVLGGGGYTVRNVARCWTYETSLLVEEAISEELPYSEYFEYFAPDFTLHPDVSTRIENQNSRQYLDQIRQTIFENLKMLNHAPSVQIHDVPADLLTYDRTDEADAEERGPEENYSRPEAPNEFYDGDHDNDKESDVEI

molecular target: Histone deacetylase 3 (Homo sapiens) (UniProt O15379); assay: HDAC3 deacetylase inhibitors, primary screen, biochemical, fluorescence, cell-free homogeneous (AID 2718); details: recombinant HDAC3, fluorogenic peptide/trypsin coupled, at 8.3 µM, stronger effect = higher value

`O=C(NC1CCS(=O)(=O)C1)Oc1ccccc1` (stereo unspecified) was tested. Which inhibition did it give?
The inhibition was inconclusive: 14.8%.

Which inhibition does the source give for `CC(=O)Nc1ccc(NC(=O)/C=C/c2ccccc2)cc1` here?
The inhibition was inconclusive: 28.5%.

With `CC(C)Cn1c(N)c(C(=O)COC(=O)c2cc(S(=O)(=O)N3CCOCC3)ccc2Br)c(=O)n(C)c1=O` as the compound, how does the inhibition read?
The inhibition was active: 33.6%.

How did the inhibition turn out when `CCN(CC)c1ccc(/C=N/N(c2ccccc2)c2ccccc2)c(O)c1` was run?
The inhibition was inactive: -2.62%.

For `Cc1ccc(S(=O)(=O)N2CCN(C3CCC(c4ccccc4)CC3)CC2)cc1` (stereo unspecified), which inhibition is on record?
The inhibition was inconclusive: 17.9%.

`COC(=O)c1ccc(S(=O)(=O)c2ccccc2)c(N)c1` was tested. Which inhibition did it give?
The inhibition was inconclusive: 19%.

`CCCCn1c(SCC(=O)N2CCCc3ccccc32)nc2c1c(=O)n(C)c(=O)n2C` was tested. Which inhibition did it give?
The inhibition was inconclusive: 13.4%.

With `Cc1ccc2nc(N(CCCN(C)C)C(=O)c3ccc(S(=O)(=O)N4CCCCCC4)cc3)sc2c1` as the compound, how does the inhibition read?
Its inhibition is inactive: 7.8%.

For `COc1ccc(OCC(=O)Nc2ccc3oc(-c4ccncc4)nc3c2)cc1`, which inhibition is on record?
Its inhibition is inactive: -8.43%.

For `Fc1cccc2sc(Nc3nc4c(F)cccc4s3)nc12`, which inhibition is on record?
The inhibition was inactive: -18.9%.

`C#CCOCCOCCOCCNc1nc(N2CCN(C(=O)CCCCCCCCCCNC(=O)[C@H](CCCCN)n3cc(C)nn3)CC2)nc(N2CCN(C(=O)CCCCCCCCCCNC(=O)[C@@H]([C@H](C)CC)n3cc(CCCCCN)nn3)CC2)n1` was tested. Which inhibition did it give?
Its inhibition is active: 30.6%.

How did the inhibition turn out when `O=C(Cc1cccc2ccccc12)NCCOc1ccccc1F` was run?
Its inhibition is inactive: 0.281%.

Which inhibition does the source give for `CN(CCOc1ccccc1)C(=O)CCc1c[nH]c2ccccc12` here?
The inhibition was inactive: 5.4%.

Which inhibition does the source give for `O=C(Nc1ccccc1O)c1cccc(NC(=O)c2ccco2)c1` here?
The inhibition was inconclusive: 78.7%.

With `COC(=O)C1=C(C)NC(=O)/C1=C\c1cc(C)n(-c2ccccc2F)c1C` as the compound, how does the inhibition read?
The inhibition was inconclusive: 24.1%.

How did the inhibition turn out when `C=CC[C@@H](CC(=O)N[C@H](CO)Cc1ccccc1)C(=O)N[C@H](COC(=O)[C@@H](CC=C)CC(=O)OC(C)(C)C)Cc1ccccc1` was run?
The inhibition was inconclusive: 22.1%.

How did the inhibition turn out when `CCCCC1=CC2=CC(=O)C(C)(OC(=O)CC)C(=O)C2=CN1C(CO)CO` (stereo unspecified) was run?
The inhibition was inactive: -2.04%.

`CC(C)c1onc(C(=O)Nc2ccc3c(c2)OCO3)c1[N+](=O)[O-]` was tested. Which inhibition did it give?
Its inhibition is inconclusive: 18.7%.

With `CCN(CC)S(=O)(=O)c1ccc(Cl)c(NC(=S)NC(=O)C2CCCC2)c1` as the compound, how does the inhibition read?
Its inhibition is inconclusive: 27.6%.

How did the inhibition turn out when `Cc1ccc(C)c(NC(=O)CN(C)C(=O)c2cc(-c3cccs3)nn2-c2ccccc2)c1` was run?
The inhibition was inactive: 1.46%.

How did the inhibition turn out when `O=c1[nH]nc(SCCS(=O)(=O)c2ccc(F)cc2)n1-c1ccccc1C(F)(F)F` was run?
Its inhibition is inconclusive: 21.5%.

With `CC1CCc2c(C(=O)Nc3ccccn3)csc2C1` (stereo unspecified) as the compound, how does the inhibition read?
Its inhibition is inconclusive: 18.2%.

How did the inhibition turn out when `CC1CCN(Cc2nnnn2CCCC(=O)NCC(C)(C)N2CCOCC2)CC1` was run?
Its inhibition is inconclusive: 17.8%.

`O=C(CSc1nc(-c2ccccc2)nn1C(=O)c1ccccc1)Nc1cccc([N+](=O)[O-])c1` was tested. Which inhibition did it give?
Its inhibition is active: 40.9%.

With `CC(C)n1c(=O)[nH][nH]c1=S` as the compound, how does the inhibition read?
Its inhibition is inconclusive: 28.1%.

For `Cc1ccc(S(=O)(=O)N(C)c2ccc(OCC(=O)Nc3ccc(C(=O)N(C)C)cc3)cc2)cc1C`, which inhibition is on record?
Its inhibition is inactive: -1.44%.

For `O=C(CSc1nnc(CNC(=O)c2ccco2)o1)Nc1nc2ccccc2s1`, which inhibition is on record?
The inhibition was inactive: -6.19%.

`CC(C)NC(=O)C(=O)NCC(c1ccc2c(c1)OCO2)N1CCOCC1` (stereo unspecified) was tested. Which inhibition did it give?
Its inhibition is inconclusive: 11%.

How did the inhibition turn out when `CC(=O)Nc1ccc(NS(=O)(=O)c2cc([N+](=O)[O-])ccc2C)cc1` was run?
The inhibition was inconclusive: 19.9%.

Which inhibition does the source give for `CCN1CCN(C(=O)c2cc(COc3c(C)cccc3C)on2)CC1` here?
The inhibition was inconclusive: 20.9%.

For `CC(=O)Nc1cccc(-c2csc(N)n2)c1`, which inhibition is on record?
The inhibition was inactive: -5.88%.

Which inhibition does the source give for `O=C(C1CCN(S(=O)(=O)c2ccc(Br)cc2)CC1)N1CCOCC1` here?
The inhibition was inactive: 0.66%.

`CC1CCCC(C)N1C(=O)COC(=O)C1CCN(S(=O)(=O)c2c(Cl)cccc2Cl)CC1` (stereo unspecified) was tested. Which inhibition did it give?
Its inhibition is inconclusive: 18.6%.

With `CCOCc1nnc(NC(=O)C2CC(=O)N(CCc3ccc(F)cc3)C2)s1` (stereo unspecified) as the compound, how does the inhibition read?
The inhibition was inactive: -1.99%.

How did the inhibition turn out when `CC(C)c1ccc(C(=O)NCCCNC(=O)c2cnccn2)cc1` was run?
Its inhibition is inconclusive: 15.7%.

How did the inhibition turn out when `CC(=O)c1cccc(NC(=O)CN2C(=O)c3cccnc3Oc3ccc(Cl)cc32)c1` was run?
Its inhibition is inconclusive: 14.3%.

Which inhibition does the source give for `CCCc1nc(Nc2nc3ccccc3o2)nc(C)c1C(=O)OCC` here?
The inhibition was inconclusive: 16.8%.

For `COc1ccc(N(C(=O)c2ccncc2)S(=O)(=O)c2cccc([N+](=O)[O-])c2)cc1`, which inhibition is on record?
Its inhibition is inactive: 0.127%.

With `CCOC(=O)Cn1nnnc1C(C(C)C)N(Cc1cc2c(C)cc(C)cc2[nH]c1=O)C1CCCC1` (stereo unspecified) as the compound, how does the inhibition read?
Its inhibition is inconclusive: 26.3%.

How did the inhibition turn out when `CCC(C)(C)C1CCc2[nH]nc(C(=O)N/N=C(\C)c3ccco3)c2C1` (stereo unspecified) was run?
The inhibition was inconclusive: 18.2%.

Which inhibition does the source give for `COc1cc(CN2CCCC(CO)(Cc3cccc(Cl)c3)C2)cc(OC)c1O` (stereo unspecified) here?
The inhibition was inactive: 3.55%.

With `C=CCOc1ccccc1CNc1cccc(F)c1` as the compound, how does the inhibition read?
Its inhibition is inactive: 4.15%.

`CCOC(=O)c1c(NC(=O)CSc2nnc(C)s2)sc2c1CCN(C)C2` was tested. Which inhibition did it give?
Its inhibition is inconclusive: 26.9%.

How did the inhibition turn out when `CC[n+]1c(/C=C/Nc2ccccc2)sc2ccccc21` was run?
Its inhibition is inconclusive: 14.6%.

Which inhibition does the source give for `O=C(NCC1CCCO1)c1cccc(S(=O)(=O)Nc2ccc(SC(F)F)cc2)c1` (stereo unspecified) here?
The inhibition was inconclusive: 21.9%.

How did the inhibition turn out when `Cc1ccc(C(=O)N2CCN(Cc3ccc4c(c3)OCO4)CC2)o1` was run?
Its inhibition is inconclusive: 17.6%.

With `COc1ccc(C2=Nn3c(nnc3-c3ccccc3Cl)SC2)cc1OC1CCOC1` (stereo unspecified) as the compound, how does the inhibition read?
Its inhibition is inactive: -2.44%.

Which inhibition does the source give for `O=C(CN1C(=O)S/C(=C\c2ccccc2)C1=O)NNC(=O)c1ccccc1O` here?
Its inhibition is inactive: -1.8%.

Which inhibition does the source give for `CCOC(=O)N1CCC2(CC1)C(C#N)=C(N)Oc1n[nH]c(CSc3ccc(C)cc3)c12` here?
The inhibition was inconclusive: 12.9%.

Which inhibition does the source give for `CCOC(=O)CSC1=Nc2ccccc2C2=NC(CC(=O)NCc3ccccc3)C(=O)N12` (stereo unspecified) here?
The inhibition was inconclusive: 20.1%.

For `COc1cc(/C=C/C(=O)OCC(=O)NCCC2=CCCCC2)ccc1O`, which inhibition is on record?
The inhibition was inconclusive: 13.3%.

`COc1ccc(-c2nc3ccccc3c(=O)n2CCCn2ccnc2)cc1` was tested. Which inhibition did it give?
The inhibition was inactive: 4.59%.

Which inhibition does the source give for `FC(F)(F)c1cc(CCN2CCNC[C@H]2Cc2cccc3ccccc23)cc(C(F)(F)F)c1` here?
Its inhibition is active: 31.6%.

Which inhibition does the source give for `COc1ccc(C(=O)OCC(=O)Nc2ccc(Cl)cn2)cc1` here?
Its inhibition is inactive: 3%.

How did the inhibition turn out when `CN1c2ccsc2/C(=N/NC(=O)c2c(F)cccc2F)CS1(=O)=O` was run?
The inhibition was inconclusive: 23.7%.

How did the inhibition turn out when `O=C(Nc1ccccc1O)c1ccc(NC(=O)C2CC2)cc1` was run?
Its inhibition is inconclusive: 92%.

Which inhibition does the source give for `COCCCNC(=O)C(Cc1ccccc1)NS(=O)(=O)c1ccc2c(c1)c(=O)n(C)c(=O)n2C` (stereo unspecified) here?
Its inhibition is inconclusive: 22.8%.

`CCC(C)(C)n1nnnc1C(c1cccs1)N1CCN(c2nc3ccccc3s2)CC1` (stereo unspecified) was tested. Which inhibition did it give?
The inhibition was inconclusive: 21.3%.

With `CC(C)(C)NC(=S)NCc1ccc2c(c1)OCO2` as the compound, how does the inhibition read?
The inhibition was inconclusive: 21.6%.

`CCc1nc(SCC(=O)c2ccc3c(c2)OCCO3)c2ccccc2n1` was tested. Which inhibition did it give?
The inhibition was active: 34.2%.

How did the inhibition turn out when `COC(=O)CCC(=O)NS(=O)(=O)c1ccc(N=NN2CCOCC2)cc1` was run?
The inhibition was inactive: 4.86%.

Which inhibition does the source give for `Cc1ccccc1N(CC(=O)NCCc1ccccc1)C(=O)c1csnn1` here?
The inhibition was inactive: 2.89%.

How did the inhibition turn out when `O=C(NCc1ccccc1)C1=C[C@@H](c2ccc(C(F)(F)F)cc2)C[C@@H](OCCCCO)O1` was run?
Its inhibition is inconclusive: 17.8%.

Which inhibition does the source give for `CC1Cc2nc(SCC(=O)Nc3nccs3)n(C)c(=O)c2S1` (stereo unspecified) here?
The inhibition was inconclusive: 14.4%.

`O=C(CCc1[nH]c2ccccc2c1Sc1ccccc1)NCCO` was tested. Which inhibition did it give?
Its inhibition is inactive: 0.322%.

With `O=C1CC(=O)N(Cc2ccco2)C(=S)N1` as the compound, how does the inhibition read?
Its inhibition is inactive: -4.1%.

With `Cc1ccc(NCC(=O)c2ccc([N+](=O)[O-])cc2)cc1` as the compound, how does the inhibition read?
The inhibition was inactive: 2.83%.

`CC(C)(C)NC(=O)NC(=O)COC(=O)c1cccc(OC(F)F)c1` was tested. Which inhibition did it give?
Its inhibition is inconclusive: 20.1%.

`O=C(Nc1cccc(-c2cnc3ccccc3n2)c1)c1ccco1` was tested. Which inhibition did it give?
The inhibition was inactive: -11.5%.

Which inhibition does the source give for `COc1cccc(-n2c(C)c(C(C)=O)c(C(C)=O)c2C)c1` here?
Its inhibition is inconclusive: 22.6%.

For `CCOC(=O)C1=C(COC(=O)CNC(=O)c2ccc(Cl)cc2Cl)NC(=O)NC1C` (stereo unspecified), which inhibition is on record?
The inhibition was inconclusive: 15.6%.

Which inhibition does the source give for `Oc1cccc(Nc2nc(-c3ccccc3Cl)nc3ccccc23)c1` here?
The inhibition was inactive: 4.29%.

How did the inhibition turn out when `Cc1cc(C)c(NC2=NCC(=O)N2C2CCCCC2)c(C)c1` was run?
Its inhibition is inconclusive: 12.2%.

How did the inhibition turn out when `CCOc1ccccc1/C=C/C(=O)c1ccc(Cl)cc1` was run?
The inhibition was inactive: 5.27%.

Which inhibition does the source give for `CCCCCCCCCn1c2c(c(=N)c3c1CCC3)CCC2` here?
The inhibition was inactive: -0.582%.

Which inhibition does the source give for `CCN(CC)CCn1c2c(c(SCC(=O)Nc3nc4ccccc4s3)nc1=O)CCCC2` here?
Its inhibition is inconclusive: 20.9%.

With `O=C(NC(=S)NCc1cccnc1)c1cc2ccccc2o1` as the compound, how does the inhibition read?
The inhibition was inconclusive: 13.3%.

`OC1(c2cccc(C(F)(F)F)c2)CCN(c2ncnc3c2[nH]c2ccccc23)CC1` was tested. Which inhibition did it give?
The inhibition was inconclusive: 22%.

How did the inhibition turn out when `Cc1ccccc1CCNC(=O)c1ccc(Cl)c(S(=O)(=O)N2CC(C)OC(C)C2)c1` (stereo unspecified) was run?
The inhibition was inconclusive: 31.8%.

Which inhibition does the source give for `Cc1ccc(C2=NCN(c3ccc(C(=O)O)cc3)C(=S)N2)cc1` here?
The inhibition was inconclusive: 13%.

With `COc1ccc(C(=O)NCc2cc(C)nc3ccccc23)cc1` as the compound, how does the inhibition read?
The inhibition was inconclusive: 17.5%.

How did the inhibition turn out when `Cc1noc(NS(=O)(=O)c2ccc(N/C=C/C(=O)c3ccncc3)cc2)c1C` was run?
The inhibition was inconclusive: 19.5%.

With `CCOC(=O)CNc1c(-c2ccc(F)cc2)nc2cnccn12` as the compound, how does the inhibition read?
Its inhibition is inactive: -18.9%.

Which inhibition does the source give for `O=C(Cn1cnc2ccccc21)Nc1cc(C(F)(F)F)ccc1N1CCOCC1` here?
Its inhibition is inactive: 4.23%.

`COc1cc2c(cc1OC)CN(C(=O)CN1CCN(S(=O)(=O)c3ccccc3Br)CC1)CC2` was tested. Which inhibition did it give?
Its inhibition is inconclusive: 29.6%.

`C=C(C)CN=c1scc(C)n1/N=C/c1ccco1` was tested. Which inhibition did it give?
Its inhibition is inactive: 4.69%.
